Measured data: PubChem BioAssay AID493246 (Drosophila RNAi Screening Center, 2011)

- Aim: 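Identify essential fly genes by loss of cell viability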 (primary screen)
- Cell system: Drosophila Kc and S2R+ cells
- Reagent: long dsRNA against Drosophila genes
- Measurement: 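Cell number per well after knock-down, printed as raw plate values; calls were based on per-plate z-scores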
- Direction: Kc cell number and S2R+ cell number: higher = more cells remaining
- Rule for the call: 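Counted as a hit if cell number falls by a z-score of at least 3 within its plate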
The screen tested about 21,000 reagents; this is a random part of those with a known target gene and a result. Over the whole deposit, 429 (2%) are marked active. 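Values are raw and not normalised between plates; calls rest on per-plate z-scores that were not deposited.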 A plus sign joins genes that one reagent is predicted to hit. Reagent sequences are not shown. Not stated in the record: the amount of reagent, the time to read-out.

With Seipin [SID104198446], what was measured?
Kc cell number, rep 1: 1.59e6; Kc cell number, rep 2: 1.56e6; S2R+ cell number, rep 1: 1.01e6; S2R+ cell number, rep 2: 1.09e6; outcome: inactive

For ric8a [SID104197885], what was measured?
Kc cell number, rep 1: 5.42e5; S2R+ cell number, rep 1: 8.01e5; outcome: inactive

What is on record for L [SID104186458]?
Kc cell number, rep 1: 1.62e6; Kc cell number, rep 2: 1.56e6; S2R+ cell number, rep 1: 1.09e6; S2R+ cell number, rep 2: 1.08e6; outcome: inactive

For L [SID104186460], what does the deposit list?
Kc cell number, rep 1: 1.56e6; Kc cell number, rep 2: 1.50e6; S2R+ cell number, rep 1: 1.21e6; S2R+ cell number, rep 2: 1.24e6; outcome: inactive

What is on record for Pos [SID104195207]?
Kc cell number, rep 1: 1.51e6; Kc cell number, rep 2: 1.52e6; S2R+ cell number, rep 1: 1.05e6; S2R+ cell number, rep 2: 1.09e6; outcome: inactive

With TfIIA-S-2 [SID104197583], how do the results read?
Kc cell number, rep 1: 1.49e6; Kc cell number, rep 2: 1.47e6; S2R+ cell number, rep 1: 1.08e6; S2R+ cell number, rep 2: 1.15e6; outcome: inactive

What is on record for Spf45 [SID104183618]?
Kc cell number, rep 1: 1.48e6; Kc cell number, rep 2: 1.55e6; S2R+ cell number, rep 1: 1.32e6; S2R+ cell number, rep 2: 3.67e5; outcome: inactive

What did the screen give for Hsdl2 [SID104195631]?
Kc cell number, rep 1: 5.29e5; S2R+ cell number, rep 1: 8.01e5; outcome: inactive

With zetaCOP [SID104191204], what does the deposit list?
Kc cell number, rep 1: 1.59e6; Kc cell number, rep 2: 1.61e6; S2R+ cell number, rep 1: 8.80e5; S2R+ cell number, rep 2: 1.01e6; outcome: inactive

How did the screen score CG5246 [SID104195543]?
Kc cell number, rep 1: 1.27e6; Kc cell number, rep 2: 1.44e6; S2R+ cell number, rep 1: 1.04e6; S2R+ cell number, rep 2: 1.18e6; outcome: inactive

How did the screen score Pp1-Y1 [SID104200688]?
Kc cell number, rep 1: 1.38e6; Kc cell number, rep 2: 1.65e6; S2R+ cell number, rep 1: 1.19e6; S2R+ cell number, rep 2: 1.29e6; outcome: inactive

For CG42237 [SID104199683], how do the results read?
Kc cell number, rep 1: 1.72e6; Kc cell number, rep 2: 1.60e6; S2R+ cell number, rep 1: 1.11e6; S2R+ cell number, rep 2: 1.19e6; outcome: inactive

With Kif3C [SID104197001], what was measured?
Kc cell number, rep 1: 1.63e6; Kc cell number, rep 2: 1.62e6; S2R+ cell number, rep 1: 1.09e6; S2R+ cell number, rep 2: 1.22e6; outcome: inactive

What is on record for Kif3C [SID104197002]?
Kc cell number, rep 1: 1.78e6; Kc cell number, rep 2: 1.75e6; S2R+ cell number, rep 1: 1.15e6; S2R+ cell number, rep 2: 1.23e6; outcome: inactive

What did the screen give for eyg [SID104191136]?
Kc cell number, rep 1: 7.18e5; Kc cell number, rep 2: 8.75e5; S2R+ cell number, rep 1: 5.20e5; S2R+ cell number, rep 2: 6.39e5; outcome: active

For CG5455 [SID104195597], what was measured?
Kc cell number, rep 1: 5.05e5; S2R+ cell number, rep 1: 7.71e5; outcome: inactive

Which result is listed for PIG-N [SID104186629]?
Kc cell number, rep 1: 1.48e6; Kc cell number, rep 2: 1.54e6; S2R+ cell number, rep 1: 1.23e6; S2R+ cell number, rep 2: 1.33e6; outcome: inactive

What is on record for CG8677 [SID104182899]?
Kc cell number, rep 1: 1.36e6; Kc cell number, rep 2: 1.45e6; S2R+ cell number, rep 1: 1.06e6; S2R+ cell number, rep 2: 1.18e6; outcome: inactive

With not [SID104191170], what was measured?
Kc cell number, rep 1: 1.35e6; Kc cell number, rep 2: 1.39e6; S2R+ cell number, rep 1: 1.28e6; S2R+ cell number, rep 2: 1.36e6; outcome: inactive

How did the screen score Inx7 + cm [SID104198545]?
Kc cell number, rep 1: 5.47e5; S2R+ cell number, rep 1: 9.21e5; outcome: inactive

With swa [SID104198634], what was measured?
Kc cell number, rep 1: 5.56e5; S2R+ cell number, rep 1: 9.21e5; outcome: inactive
